Experimental data as given in the supplement of paper PMC10338343.
± gives the standard deviation. Only a part is listed here, and it is no random draw. The uncertainty is large for many entries.

Each sequence was assayed on EfPiwi piRISC loaded with piRNA #1 (26 nt) (assay: pre-steady-state target cleavage rate (min^-1); guide: piRNA #1 5'p-UGAGGUAGUAGGUUGUAUAGUAUCCA; MIWI and MILI are mouse PIWI proteins and EfPiwi is from a freshwater sponge; tags in brackets are library labels; higher = faster piRNA-guided slicing of the target). Conditions: auxiliary factor: 500 nM Ephydatia muelleri Gtsf1.
Procedure, shortened: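 Reactions were run for 0–8 or 0–960 min at 33 °C in HEPES–potassium acetate buffer, combining 1 nM active affinity-purified piRISC with one synthetic guide, […] transcribed, DNA-blocked target RNA library and, in some cases, 500 nM GTSF1 partner protein. Sequencing of uncleaved targets followed, with normalisation to depth and to weakly complementary targets. Three trials were pooled, k3 was capped at 0.0001 min^-1, and the pre-steady-state cleavage rate was taken from a burst-and-steady-state fit.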
With “GGAGACCUUACUAUACAACCUACUUGGAGA [g7:g22:cont:t1A]” the “pre-steady-state target cleavage rate” value was 0.00347 ± 0.0041.
“GGAGACCUAUGAUAUGUACCUACAUGGAGA [g8:g13:cont:t1A]” was tested, and the “pre-steady-state target cleavage rate” value was less than 0.0001.
GGAGACCUAUCUUUACAACCUACUUCCUCA was tested, and the “pre-steady-state target cleavage rate” value was 0.00199 ± 0.005.
In the case of GGAGUGGAUACUACACAACCUACUACCUCA, the “pre-steady-state target cleavage rate” value is reported as 0.082 ± 0.029.
For GGAGACCUUAGUAUUCAACCUACUACCUCA, the “pre-steady-state target cleavage rate” value was 0.00108 ± 0.0077.
For GGAGAGGAUACUAUACAAGCUACUACCUGA, the “pre-steady-state target cleavage rate” value was 0.00442 ± 0.0019.
GGAGACGAUUGUAUACAACCUACUACCUCA was tested, and the “pre-steady-state target cleavage rate” value was 0.00299 ± 0.0037.
In the case of GGAGACGAAACUAAACAACCUACUACCUCA, the “pre-steady-state target cleavage rate” value is reported as 0.00324 ± 0.0032.
For GGAGACCUUACUAUACAACCUACUUCCUGA, the “pre-steady-state target cleavage rate” value was 0.00252 ± 0.0032.
With GGAGACCUAACUUUACAAGCUACUACCUCA the “pre-steady-state target cleavage rate” value was 0.0019 ± 0.004.
For GGAGACCUAUCUAUACUACCUACUACGUCA, the “pre-steady-state target cleavage rate” value was 0.000652 ± 0.0048.
GGAGACCUAACUAUUCAACCUACUACGUCA was tested, and the “pre-steady-state target cleavage rate” value was 0.00137 ± 0.0065.
In the case of GGAGUGGAUACUAUACAACCUACUACCUUCA, the “pre-steady-state target cleavage rate” value is reported as 0.168 ± 0.061.
With GGAGACCAUACUUUACAACCUACUAGCUCA the “pre-steady-state target cleavage rate” value was 0.00215 ± 0.0038.
GGAGACCUUACUAUACAACCUACCUACCUCA was tested, and the “pre-steady-state target cleavage rate” value was 0.0019 ± 0.0043.
With GGAGACCUAUGAUAUGAAGCUACUUCCUCA the “pre-steady-state target cleavage rate” value was 0.000145 ± 0.018.
For GGAGACCAUAGUAUACAACCUACUACCUGA, the “pre-steady-state target cleavage rate” value was 0.00396 ± 0.0018.
For GGAGACCUAUCUAUACAACCUACUACCCCA, the “pre-steady-state target cleavage rate” value was 0.00444 ± 0.0032.
GGAGACCUAUGAUAUGUUCCUACUACCAGA was tested, and the “pre-steady-state target cleavage rate” value was 0.000155 ± 0.013.
In the case of GGAGUGGAUACUAUAGAAGCUACUACCUCA, the “pre-steady-state target cleavage rate” value is reported as 0.00277 ± 0.0019.
For GGAGACCUAACUAUACAACCUACUACGCUCA, the “pre-steady-state target cleavage rate” value was 0.00453 ± 0.0049.
For GGAGACCAUACUAUACAACCUACUCCUCA, the “pre-steady-state target cleavage rate” value was 0.0041 ± 0.0047.
GGAGACCAUACUAUUCAACCUACAACCUCA was tested, and the “pre-steady-state target cleavage rate” value was 0.00131 ± 0.0049.
For GGAGAGGAUACUAUUGAACCUACUACCUCA, the “pre-steady-state target cleavage rate” value was 0.00275 ± 0.0046.
GGAGACCUAUGUAUACAACCUACUUGGUCA was tested, and the “pre-steady-state target cleavage rate” value was 0.000291 ± 0.0069.
For GGAGACGAUACUAUACAACCUACAUGCUCA, the “pre-steady-state target cleavage rate” value was 0.00271 ± 0.0034.
In the case of GGAGACCUAACUAUACAUCCUACUAGCUCA, the “pre-steady-state target cleavage rate” value is reported as 0.00354 ± 0.0042.
In the case of GGAGACCUAUGAUAUCAACCUACAACCUCA, the “pre-steady-state target cleavage rate” value is reported as 0.000767 ± 0.01.
GGAGACCAUACUAUACAACCAACUACCUCA was tested, and the “pre-steady-state target cleavage rate” value was 0.00627 ± 0.0022.
GGAGUGGAUACUAGACAACCUACUACCUCA was tested, and the “pre-steady-state target cleavage rate” value was 0.226 ± 0.081.
In the case of GGAGUGGAUACUAAACAACCUACUAGCUCA, the “pre-steady-state target cleavage rate” value is reported as 0.0013 ± 0.0025.
With GGAGAGGAUACUAUAGAACCUACUUCCUCA the “pre-steady-state target cleavage rate” value was 0.00187 ± 0.0023.
In the case of GGAGACCUUACUAUACAACCUAGCUACCUCA, the “pre-steady-state target cleavage rate” value is reported as 0.00326 ± 0.0038.
With GGAGACGAUACUUUACAACCUACUACCACA the “pre-steady-state target cleavage rate” value was 0.00268 ± 0.0031.
GGAGACCUAACUAUACAACCUACUUCCACA was tested, and the “pre-steady-state target cleavage rate” value was 0.00364 ± 0.0039.
In the case of GGAGACCAUCUAUACAACCUACUACCUCA, the “pre-steady-state target cleavage rate” value is reported as 0.00903 ± 0.0054.
GGAGAGGCUACUAUACAACCUACUACCUCA was tested, and the “pre-steady-state target cleavage rate” value was 0.0629 ± 0.022.
GGAGACCUAUGAAUACAACCUACUAGGUCA was tested, and the “pre-steady-state target cleavage rate” value was 0.000871 ± 0.0056.
GGAGACGAUUACUAUACAACCUACUACCUCA was tested, and the “pre-steady-state target cleavage rate” value was 0.0159 ± 0.0066.
GGAGAGGAUAGAAUACAACCUACUACCUCA was tested, and the “pre-steady-state target cleavage rate” value was 0.00366 ± 0.004.
